PubChem BioAssay AID1671195, Yale University – 2021
Assay: 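Genes whose knockdown alters LDL uptake in liver cancer cells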 (primary screen). System: human Huh7 hepatoma cells. Reagents: siRNA pool against human genes, 18 nM. Time to read-out: about 2 to 2.5 days of knockdown, then 8 h LDL uptake. Challenge: DiI-labelled LDL at 30 µg/ml for 8 h, in lipoprotein-deficient serum medium. Measurement: 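Per-cell DiI-LDL intensity by automated imaging; well means scaled to the plate median and given as a robust z-score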. Reading the numbers: robust z-score: higher = more LDL uptake after knockdown. Call rule: 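a gene counts as active if at least two replicate z-scores exceed ±2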.
Here is a random part of about 22,000 reagents. About 1,510 of them (6.9%) count as active. 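Active includes knockdowns raising or lowering LDL uptake; positive z-scores mean more uptake, negative mean less.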

target gene	robust z-score, replicate 1	robust z-score, replicate 2	robust z-score, replicate 3	call
SMCO4	1.09	0.338	1.59	inactive
CLDN4	0.485	0.448	0.21	inactive
LOC388283 (retired record)	-0.191	0.529	0.345	inactive
ZKSCAN4	-0.72	-0.591	-0.281	inactive
PATE1	-1.01	-0.619	-0.947	inactive
E4F1	-0.92	-0.679	-0.513	inactive
GPR179	-1.84	-1.76	-0.363	inactive
CAMKV	1.33	2.93	1.24	inactive
C3orf62	1.81	2.01	1.9	inactive
CPD	0.603	0.644	0.287	inactive
UPF1	1.03	1.24	1.68	inactive
RGS4	3.87	4.17	5.65	active
PABPC5	1.28	0.534	0.669	inactive
CPEB4	-0.827	-0.972	-0.831	inactive
CRIPT	1.98	3.85	2.38	active
TBC1D4	-1.14	0.599	0.801	inactive
SCRG1	0.625	-0.775	0.197	inactive
FBXL19-AS1	-1.1	-1.05	-1.3	inactive
HARBI1	0.566	0.621	1.11	inactive
RORC	1.71	0.869	1.28	inactive
MCUR1	2.75	2.14	2.37	active
GTF2I	0.185	0.595	1.15	inactive
THUMPD3	0.251	-0.306	-0.139	inactive
TMC8	-0.342	0.33	0.434	inactive
LZTS3	2.82	0.701	1.32	inactive
SORBS1	0.399	0.195	-0.812	inactive
DPP7	0.455	0.0984	0.143	inactive
RNPEP	2.01	1.22	1.99	active

2 successive entries already listed:
target gene	robust z-score, replicate 1	robust z-score, replicate 2	robust z-score, replicate 3	call
CPEB4	-0.827	-0.972	-0.831	inactive
CRIPT	1.98	3.85	2.38	active
